Consider 4 substances from paper PMC8789930.

Sequences of proteins named here, by UniProt entry; tags and fusion partners are left off.
UniProt Q14258: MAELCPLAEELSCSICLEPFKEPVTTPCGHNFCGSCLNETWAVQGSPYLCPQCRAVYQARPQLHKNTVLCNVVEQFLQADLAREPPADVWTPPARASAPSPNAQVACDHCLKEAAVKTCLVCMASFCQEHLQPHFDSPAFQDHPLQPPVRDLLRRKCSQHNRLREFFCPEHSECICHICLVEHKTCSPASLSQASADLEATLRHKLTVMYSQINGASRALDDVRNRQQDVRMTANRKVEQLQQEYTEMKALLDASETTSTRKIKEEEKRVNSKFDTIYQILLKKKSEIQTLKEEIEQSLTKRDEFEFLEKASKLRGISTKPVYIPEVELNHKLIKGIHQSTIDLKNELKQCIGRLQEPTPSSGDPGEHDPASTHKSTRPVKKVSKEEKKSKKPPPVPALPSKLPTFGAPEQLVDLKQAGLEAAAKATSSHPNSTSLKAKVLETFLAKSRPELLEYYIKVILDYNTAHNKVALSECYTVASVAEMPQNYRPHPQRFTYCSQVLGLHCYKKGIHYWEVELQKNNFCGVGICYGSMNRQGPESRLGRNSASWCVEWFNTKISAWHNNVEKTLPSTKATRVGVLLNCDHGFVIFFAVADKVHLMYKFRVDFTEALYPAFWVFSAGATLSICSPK
UniProt P13010: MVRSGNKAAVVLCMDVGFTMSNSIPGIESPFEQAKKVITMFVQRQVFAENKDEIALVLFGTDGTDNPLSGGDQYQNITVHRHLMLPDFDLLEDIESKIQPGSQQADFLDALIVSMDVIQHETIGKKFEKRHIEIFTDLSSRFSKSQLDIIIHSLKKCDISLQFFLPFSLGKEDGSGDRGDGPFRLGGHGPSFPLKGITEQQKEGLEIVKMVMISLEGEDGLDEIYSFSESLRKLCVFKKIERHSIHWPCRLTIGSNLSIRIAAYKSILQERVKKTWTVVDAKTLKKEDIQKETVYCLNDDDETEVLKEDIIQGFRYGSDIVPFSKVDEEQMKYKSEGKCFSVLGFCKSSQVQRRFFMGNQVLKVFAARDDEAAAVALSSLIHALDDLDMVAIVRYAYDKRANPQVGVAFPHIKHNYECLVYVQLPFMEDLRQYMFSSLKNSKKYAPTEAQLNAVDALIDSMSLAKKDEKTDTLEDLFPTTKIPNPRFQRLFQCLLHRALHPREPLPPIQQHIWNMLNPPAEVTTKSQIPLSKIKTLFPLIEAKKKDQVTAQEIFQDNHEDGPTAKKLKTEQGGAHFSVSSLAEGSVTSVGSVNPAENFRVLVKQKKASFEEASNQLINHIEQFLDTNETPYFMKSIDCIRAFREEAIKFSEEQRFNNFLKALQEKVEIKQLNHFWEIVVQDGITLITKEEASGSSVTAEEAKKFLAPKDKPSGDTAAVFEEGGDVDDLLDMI

Experiment [1] concerns the target TRIM25 (exogenous, MYC- or FLAG-tagged) (UniProt Q14258). The experiment in a line: co-IP; exogenous (transfected, tagged) proteins in SUNE1 / NPC cells; lysate immunoprecipitated overnight at 4 °C with 3 μg antibody (anti-HA or anti-FLAG for USP44 and Ku80), Protein A/G magnetic beads, western blot. A general note: Immunoblotting shows a protein as a band on a membrane.

The target of the next experiment is T1, HA-USP44 (UniProt Q9H0E7).
T1 sequence: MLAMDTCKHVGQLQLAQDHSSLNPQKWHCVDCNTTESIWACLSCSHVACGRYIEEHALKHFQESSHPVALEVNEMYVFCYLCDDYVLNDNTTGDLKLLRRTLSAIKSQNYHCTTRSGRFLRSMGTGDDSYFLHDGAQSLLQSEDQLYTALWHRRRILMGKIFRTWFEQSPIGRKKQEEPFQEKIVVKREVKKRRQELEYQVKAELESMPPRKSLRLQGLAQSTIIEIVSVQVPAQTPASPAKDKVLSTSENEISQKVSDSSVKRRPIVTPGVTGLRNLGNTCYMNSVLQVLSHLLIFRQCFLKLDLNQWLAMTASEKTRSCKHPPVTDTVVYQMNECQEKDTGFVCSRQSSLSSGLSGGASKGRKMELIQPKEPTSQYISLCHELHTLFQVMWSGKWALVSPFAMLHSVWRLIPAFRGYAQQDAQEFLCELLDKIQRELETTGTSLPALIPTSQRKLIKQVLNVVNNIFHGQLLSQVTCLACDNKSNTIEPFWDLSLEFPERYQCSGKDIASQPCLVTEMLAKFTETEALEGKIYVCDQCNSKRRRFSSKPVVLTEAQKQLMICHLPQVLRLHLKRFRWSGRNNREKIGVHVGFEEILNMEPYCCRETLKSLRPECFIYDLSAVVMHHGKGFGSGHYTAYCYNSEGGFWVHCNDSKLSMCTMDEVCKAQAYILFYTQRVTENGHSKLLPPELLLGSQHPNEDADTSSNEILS
The experiment is described as above.

The target in experiment [2] is TRIM25 (endogenous) (human (endogenous in SUNE1 and other NPC cells)) (UniProt Q14258). Put plainly: co-IP; endogenous proteins in NPC cells; lysate immunoprecipitated overnight at 4 °C with 3 μg antibody, Protein A/G magnetic beads, western blot.
Experiment [3] has as its target T2, USP44 (endogenous) (human (endogenous in NPC cells)) (UniProt Q9H0E7).
T2 sequence: T1 sequence
The experiment is described as above.

Results are given in words; binding and its absence hold for the method and conditions named. Binding seen in cells or lysates may run through a third protein. Some results given as binding are weak or reduced against the parent protein; the word gives no strength. For some assays here: Where a sequence is shown, tags or fusion partners need not be part of it.

For the substance FLAG-Ku80 (from UniProt P13010 1-732), the binding result (in experiment [1]; with HA-USP44) was “binds” each time.

With “Ku80 (endogenous) (from UniProt P13010 1-732)”, the binding result in experiment [2] is recorded as “binds”. Regarding “TRIM25 (endogenous) (from UniProt Q14258 1-630)”, the binding result in experiment [3] is recorded as “binds”. Regarding “TRIM25 (exogenous, MYC- or FLAG-tagged) (from UniProt Q14258 1-630)”, the binding result with HA-USP44 is reported as “binds”.
